Measured values as given in the supplement of paper PMC12823440, “Inhibitors supercharge kinase turnover through native proteolytic circuits” (Nature, 2025).
Counter-ions that a name gives are not always drawn. This is one part of the list. Hit calls seldom repeat between salt and free forms of one compound.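 Kinases were expressed as nanoluciferase fusions in K562 cells and luminescence was read every 4 h between 2 and 18 h as percent of control, DMSO set to 100% and a positive control to 0%. A time point counts as decreased when the signal drops significantly (2 sigma). The hit call is the authors' own, does not follow from the count of time points alone, and its rule is not shown.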

By UniProt entry, the sequences of proteins in these tests, tags left out. Where a name states a change or a piece, a line headed by the entry shows the natural chain unless it says otherwise.
UniProt Q8IWU2: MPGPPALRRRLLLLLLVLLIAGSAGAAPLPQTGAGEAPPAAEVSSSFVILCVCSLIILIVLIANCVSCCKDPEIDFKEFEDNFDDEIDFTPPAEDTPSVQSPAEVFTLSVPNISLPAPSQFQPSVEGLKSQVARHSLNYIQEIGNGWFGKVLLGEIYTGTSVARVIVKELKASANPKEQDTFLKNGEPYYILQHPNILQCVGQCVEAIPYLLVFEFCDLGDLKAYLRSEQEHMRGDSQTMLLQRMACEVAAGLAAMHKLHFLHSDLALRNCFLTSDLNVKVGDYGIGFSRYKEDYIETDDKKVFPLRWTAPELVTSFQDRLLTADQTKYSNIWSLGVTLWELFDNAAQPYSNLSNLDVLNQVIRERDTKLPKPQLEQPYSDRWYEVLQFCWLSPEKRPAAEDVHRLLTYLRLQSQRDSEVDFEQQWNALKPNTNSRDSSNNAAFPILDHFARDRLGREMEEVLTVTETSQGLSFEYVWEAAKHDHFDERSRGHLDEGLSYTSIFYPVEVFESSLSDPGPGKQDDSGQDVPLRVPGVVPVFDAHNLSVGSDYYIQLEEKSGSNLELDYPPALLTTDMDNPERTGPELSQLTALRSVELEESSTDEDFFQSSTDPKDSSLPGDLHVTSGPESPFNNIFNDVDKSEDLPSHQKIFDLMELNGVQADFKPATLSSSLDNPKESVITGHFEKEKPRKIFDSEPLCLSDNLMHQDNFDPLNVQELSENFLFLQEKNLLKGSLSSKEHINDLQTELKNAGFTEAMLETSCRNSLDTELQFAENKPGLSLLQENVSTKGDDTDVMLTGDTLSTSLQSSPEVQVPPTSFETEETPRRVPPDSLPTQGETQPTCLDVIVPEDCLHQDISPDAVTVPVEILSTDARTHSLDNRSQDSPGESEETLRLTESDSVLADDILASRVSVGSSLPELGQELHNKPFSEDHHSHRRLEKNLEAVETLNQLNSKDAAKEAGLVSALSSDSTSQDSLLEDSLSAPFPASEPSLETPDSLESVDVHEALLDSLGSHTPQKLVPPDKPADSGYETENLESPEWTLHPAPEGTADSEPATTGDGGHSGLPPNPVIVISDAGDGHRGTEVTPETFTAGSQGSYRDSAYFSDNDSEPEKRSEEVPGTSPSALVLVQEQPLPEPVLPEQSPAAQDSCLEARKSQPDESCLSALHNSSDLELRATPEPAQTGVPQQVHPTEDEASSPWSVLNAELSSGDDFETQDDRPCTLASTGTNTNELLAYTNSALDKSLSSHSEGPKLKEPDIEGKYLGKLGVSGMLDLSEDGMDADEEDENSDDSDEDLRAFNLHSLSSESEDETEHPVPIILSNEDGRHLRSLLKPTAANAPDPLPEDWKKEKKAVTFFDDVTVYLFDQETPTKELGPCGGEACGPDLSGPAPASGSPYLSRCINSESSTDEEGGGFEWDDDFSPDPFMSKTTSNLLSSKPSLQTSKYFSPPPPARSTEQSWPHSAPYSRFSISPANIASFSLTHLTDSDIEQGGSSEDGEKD
UniProt P07948: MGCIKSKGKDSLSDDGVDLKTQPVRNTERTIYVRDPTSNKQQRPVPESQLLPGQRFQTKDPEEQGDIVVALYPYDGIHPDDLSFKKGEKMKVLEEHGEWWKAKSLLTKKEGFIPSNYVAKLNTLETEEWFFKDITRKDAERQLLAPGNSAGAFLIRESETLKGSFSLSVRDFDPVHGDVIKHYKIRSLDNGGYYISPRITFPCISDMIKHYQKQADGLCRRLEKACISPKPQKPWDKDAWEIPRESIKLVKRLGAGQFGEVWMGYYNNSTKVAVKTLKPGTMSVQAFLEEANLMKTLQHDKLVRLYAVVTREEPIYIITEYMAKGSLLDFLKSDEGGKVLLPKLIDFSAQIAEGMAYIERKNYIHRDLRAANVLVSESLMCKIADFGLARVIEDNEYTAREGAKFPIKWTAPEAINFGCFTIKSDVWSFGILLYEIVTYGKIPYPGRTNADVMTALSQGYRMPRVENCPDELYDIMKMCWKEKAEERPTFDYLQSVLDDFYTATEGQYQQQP
UniProt Q12851: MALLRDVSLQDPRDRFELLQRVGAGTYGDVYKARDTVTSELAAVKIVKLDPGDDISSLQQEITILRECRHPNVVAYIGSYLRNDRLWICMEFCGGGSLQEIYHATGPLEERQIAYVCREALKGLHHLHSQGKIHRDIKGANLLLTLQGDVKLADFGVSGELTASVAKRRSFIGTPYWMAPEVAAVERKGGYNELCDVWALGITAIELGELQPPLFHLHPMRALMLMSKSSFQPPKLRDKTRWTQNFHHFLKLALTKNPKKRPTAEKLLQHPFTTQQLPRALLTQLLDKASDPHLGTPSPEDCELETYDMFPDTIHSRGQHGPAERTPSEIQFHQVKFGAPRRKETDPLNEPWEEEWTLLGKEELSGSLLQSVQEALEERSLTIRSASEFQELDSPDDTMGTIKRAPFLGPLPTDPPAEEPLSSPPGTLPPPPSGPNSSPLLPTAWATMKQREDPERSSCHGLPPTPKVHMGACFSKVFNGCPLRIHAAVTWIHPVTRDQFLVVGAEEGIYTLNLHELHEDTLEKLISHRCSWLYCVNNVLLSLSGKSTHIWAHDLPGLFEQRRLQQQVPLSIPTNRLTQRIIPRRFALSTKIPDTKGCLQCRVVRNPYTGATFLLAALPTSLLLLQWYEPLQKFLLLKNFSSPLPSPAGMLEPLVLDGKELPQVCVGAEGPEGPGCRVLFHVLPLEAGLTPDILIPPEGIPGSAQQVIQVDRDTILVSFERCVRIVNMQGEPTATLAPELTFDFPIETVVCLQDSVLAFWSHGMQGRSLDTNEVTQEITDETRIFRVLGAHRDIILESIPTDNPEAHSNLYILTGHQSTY
UniProt P28482, whole entry: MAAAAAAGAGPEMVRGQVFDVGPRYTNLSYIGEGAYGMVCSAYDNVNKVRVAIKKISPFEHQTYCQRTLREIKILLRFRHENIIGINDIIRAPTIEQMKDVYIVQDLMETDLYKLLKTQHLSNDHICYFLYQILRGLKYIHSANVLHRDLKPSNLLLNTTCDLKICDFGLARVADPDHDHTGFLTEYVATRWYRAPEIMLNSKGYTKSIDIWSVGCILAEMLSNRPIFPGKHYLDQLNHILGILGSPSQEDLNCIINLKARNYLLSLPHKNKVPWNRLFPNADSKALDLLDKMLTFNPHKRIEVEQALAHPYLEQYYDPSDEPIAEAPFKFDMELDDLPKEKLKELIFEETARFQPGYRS
UniProt P31152, whole entry: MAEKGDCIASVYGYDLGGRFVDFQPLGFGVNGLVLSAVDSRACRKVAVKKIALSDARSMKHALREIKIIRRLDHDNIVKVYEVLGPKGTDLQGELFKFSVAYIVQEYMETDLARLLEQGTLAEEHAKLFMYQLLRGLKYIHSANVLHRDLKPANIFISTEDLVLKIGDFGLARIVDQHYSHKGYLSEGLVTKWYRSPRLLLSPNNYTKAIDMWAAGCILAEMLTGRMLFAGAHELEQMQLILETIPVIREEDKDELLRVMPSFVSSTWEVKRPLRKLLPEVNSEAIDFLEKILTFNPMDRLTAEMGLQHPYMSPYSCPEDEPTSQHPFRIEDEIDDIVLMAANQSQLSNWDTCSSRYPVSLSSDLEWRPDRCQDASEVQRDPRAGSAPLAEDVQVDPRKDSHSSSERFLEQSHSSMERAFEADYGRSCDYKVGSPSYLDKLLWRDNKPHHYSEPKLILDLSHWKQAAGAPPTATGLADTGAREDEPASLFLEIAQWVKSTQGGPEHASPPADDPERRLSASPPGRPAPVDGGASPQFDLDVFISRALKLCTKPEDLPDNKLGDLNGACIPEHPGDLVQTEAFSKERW
UniProt P49137, whole entry, looked up: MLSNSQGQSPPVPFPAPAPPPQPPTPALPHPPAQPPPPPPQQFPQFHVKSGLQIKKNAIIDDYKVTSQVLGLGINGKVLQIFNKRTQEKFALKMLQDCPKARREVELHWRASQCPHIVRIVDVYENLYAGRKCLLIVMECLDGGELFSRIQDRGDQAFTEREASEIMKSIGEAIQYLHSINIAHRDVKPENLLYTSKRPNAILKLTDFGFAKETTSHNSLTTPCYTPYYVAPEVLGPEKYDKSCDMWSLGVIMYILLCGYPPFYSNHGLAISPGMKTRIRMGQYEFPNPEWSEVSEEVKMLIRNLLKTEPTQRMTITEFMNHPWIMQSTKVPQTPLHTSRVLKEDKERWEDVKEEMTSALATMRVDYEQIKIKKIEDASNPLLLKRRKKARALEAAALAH
UniProt Q9BUB5: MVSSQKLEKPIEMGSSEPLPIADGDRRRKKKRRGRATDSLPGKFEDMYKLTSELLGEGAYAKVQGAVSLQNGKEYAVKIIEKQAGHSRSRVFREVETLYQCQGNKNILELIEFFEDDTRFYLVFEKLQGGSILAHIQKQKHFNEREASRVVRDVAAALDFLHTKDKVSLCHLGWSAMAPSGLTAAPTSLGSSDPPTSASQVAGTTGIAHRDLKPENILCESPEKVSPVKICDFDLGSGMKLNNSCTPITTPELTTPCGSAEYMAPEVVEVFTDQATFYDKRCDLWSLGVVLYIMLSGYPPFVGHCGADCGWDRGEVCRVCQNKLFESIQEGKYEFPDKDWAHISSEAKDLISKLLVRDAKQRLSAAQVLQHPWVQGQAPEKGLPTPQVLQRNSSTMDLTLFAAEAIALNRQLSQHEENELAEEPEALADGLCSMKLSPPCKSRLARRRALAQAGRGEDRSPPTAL
UniProt Q16620, whole entry, looked up: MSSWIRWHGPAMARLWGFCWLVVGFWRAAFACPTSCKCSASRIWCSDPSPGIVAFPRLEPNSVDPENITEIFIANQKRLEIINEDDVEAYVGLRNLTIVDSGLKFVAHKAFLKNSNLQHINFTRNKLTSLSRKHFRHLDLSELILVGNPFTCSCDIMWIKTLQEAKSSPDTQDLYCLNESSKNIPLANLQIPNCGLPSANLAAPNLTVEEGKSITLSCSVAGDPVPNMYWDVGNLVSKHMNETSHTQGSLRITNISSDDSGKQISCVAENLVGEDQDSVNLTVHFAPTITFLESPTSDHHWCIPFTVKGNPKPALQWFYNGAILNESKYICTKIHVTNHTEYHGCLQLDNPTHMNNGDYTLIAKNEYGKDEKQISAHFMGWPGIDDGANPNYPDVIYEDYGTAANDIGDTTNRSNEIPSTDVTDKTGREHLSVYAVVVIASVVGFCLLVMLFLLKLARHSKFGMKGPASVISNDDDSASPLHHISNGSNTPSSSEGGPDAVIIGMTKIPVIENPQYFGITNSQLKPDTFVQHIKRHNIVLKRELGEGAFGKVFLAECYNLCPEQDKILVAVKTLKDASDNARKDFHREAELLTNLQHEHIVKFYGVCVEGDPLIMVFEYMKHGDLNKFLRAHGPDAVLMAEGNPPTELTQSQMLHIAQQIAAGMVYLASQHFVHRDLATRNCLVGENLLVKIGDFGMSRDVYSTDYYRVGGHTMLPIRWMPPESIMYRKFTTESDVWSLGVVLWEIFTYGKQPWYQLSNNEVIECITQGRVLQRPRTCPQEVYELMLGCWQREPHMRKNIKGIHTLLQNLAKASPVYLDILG

Experiments:
Experiment in all cases: number of time points (of 5) at which kinase-Nluc abundance scored as decreased, DMSO-normalised (count); higher = more persistent destabilization
Settings in all cases: K562; 2-18 h
LMTK2 = LMTK2 (UniProt Q8IWU2)
LYN = LYN (UniProt P07948)
MAP2K1 = MAP2K1 (UniProt Q02750)
MAP2K2 = MAP2K2 (UniProt P36507)
MAP4K2 = MAP4K2 (UniProt Q12851)
MAPK1 = MAPK1 (UniProt P28482)
MAPK4 = MAPK4 (UniProt P31152)
MAPKAPK2 = MAPKAPK2 (UniProt P49137)
MKNK1 = MKNK1 (UniProt Q9BUB5)
NTRK2 = NTRK2 (UniProt Q16620)

Measured: number of time points

CCN1CCN(Cc2ccc(C(=O)Nc3ccc(C)c(Oc4ccc5c(c4)CC(=O)N5)c3)cc2C(F)(F)F)CC1 (2.5 µM)
2: MKNK1
1: MAPK4 | NTRK2
0: LMTK2 | LYN | MAP2K1 | MAP2K2 | MAP4K2 | MAPK1 | MAPKAPK2

CCN1C(=O)N(c2c(F)c(OC)cc(OC)c2F)Cc2cnc3[nH]c(CN4CCOCC4)cc3c21 [Pemigatinib] (10 µM)
0: LMTK2 | LYN | MAP2K1 | MAP2K2 | MAP4K2 | MAPK1 | MAPK4 | MAPKAPK2 | MKNK1 | NTRK2

COCCOc1cc2nccc(Nc3n[nH]c(C)c3C)c2cc1S(=O)(=O)C(C)(C)C [RIP2 kinase inhibitor 2] (2.5 µM)
0: LMTK2 | LYN | MAP2K1 | MAP2K2 | MAP4K2 | MAPK1 | MAPK4 | MAPKAPK2 | MKNK1 | NTRK2

Cc1ccc(NC(=O)Nc2nnc(Sc3ncnc4cc(OCCCN5CCOCC5)ccc34)s2)cc1 (10 µM)
0: LMTK2 | LYN | MAP2K1 | MAP2K2 | MAP4K2 | MAPK1 | MAPK4 | MAPKAPK2 | MKNK1 | NTRK2

CC1(C)CC=C(c2nc(C3CC(C)(C)OC(C)(C)C3)ccc2NC(=O)c2nc(C#N)c[nH]2)CC1 [Edicotinib] (2.5 µM)
0: LMTK2 | LYN | MAP2K1 | MAP2K2 | MAP4K2 | MAPK1 | MAPK4 | MAPKAPK2 | MKNK1 | NTRK2

C=CC(=O)N[C@H]1COC[C@H]1Nc1ncc2cc(-c3c(Cl)c(OC)cc(OC)c3Cl)c(=O)n(C)c2n1 (10 µM)
0: LMTK2 | LYN | MAP2K1 | MAP2K2 | MAP4K2 | MAPK1 | MAPK4 | MAPKAPK2 | MKNK1 | NTRK2

N#Cc1ccc2[nH]c(O)c(-c3ccc(CN4CCOCC4)cn3)c2c1 (10 µM)
0: LMTK2 | LYN | MAP2K1 | MAP2K2 | MAP4K2 | MAPK1 | MAPK4 | MAPKAPK2 | MKNK1 | NTRK2

COc1cc(N2CCC(N)CC2)ccc1Nc1ncc(Cl)c(-c2c[nH]c3ccccc23)n1 (2.5 µM)
0: LMTK2 | LYN | MAP2K1 | MAP2K2 | MAP4K2 | MAPK1 | MAPK4 | MAPKAPK2 | MKNK1 | NTRK2

COc1ccc2c(NC(=O)Nc3cccc(C(F)(F)F)n3)ccnc2c1 (10 µM)
0: LMTK2 | LYN | MAP2K1 | MAP2K2 | MAP4K2 | MAPK1 | MAPK4 | MAPKAPK2 | MKNK1 | NTRK2

Cc1cc(C)c(/C=C2\C(=O)Nc3ccccc32)[nH]1 [Semaxinib] (10 µM)
0: LMTK2 | LYN | MAP2K1 | MAP2K2 | MAP4K2 | MAPK1 | MAPK4 | MAPKAPK2 | MKNK1 | NTRK2

CC(C)(/C=C(\C#N)C(=O)N1CCC[C@@H](n2nc(-c3ccc(Oc4ccccc4)cc3F)c3c(N)ncnc32)C1)N1CCN(C2COC2)CC1 (2.5 µM)
0: LMTK2 | LYN | MAP2K1 | MAP2K2 | MAP4K2 | MAPK1 | MAPK4 | MAPKAPK2 | MKNK1 | NTRK2

Oc1cc(O)cc(/C=C/c2ccc(O)c(O)c2)c1 [Piceatannol] (10 µM)
0: LYN | MAP2K1 | MAP2K2 | MAP4K2 | MAPK1 | MAPK4 | MKNK1
3: LMTK2 | NTRK2
2: MAPKAPK2

Cc1c[nH]c2nccc(Oc3c(F)cc(Nc4cc(Cl)nc(N)n4)cc3F)c12 (10 µM)
1: MKNK1
0: LMTK2 | LYN | MAP2K1 | MAP2K2 | MAP4K2 | MAPK1 | MAPK4 | MAPKAPK2 | NTRK2

Cc1c[nH]c2ccccc12 [Skatole] (10 µM)
0: LMTK2 | LYN | MAP2K1 | MAP2K2 | MAP4K2 | MAPK1 | MAPK4 | MAPKAPK2 | MKNK1 | NTRK2

O=c1oc2c(O)c(O)cc3c(=O)oc4c(O)c(O)cc1c4c23 [Ellagic acid] (10 µM)
0: LMTK2 | LYN | MAP2K1 | MAP2K2 | MAP4K2 | MAPK1 | MAPK4 | MAPKAPK2 | MKNK1 | NTRK2

CC(C)c1ccc2oc3nc(N)c(C(=O)O)cc3c(=O)c2c1 [Amlexanox] (10 µM)
0: LMTK2 | LYN | MAP2K1 | MAP2K2 | MAP4K2 | MAPK1 | MAPK4 | MAPKAPK2 | MKNK1 | NTRK2

Cc1c(C(=O)N2CCOc3ccc(-c4ccc(N)nc4)cc3C2)ccc(S(C)(=O)=O)c1F (10 µM)
0: LMTK2 | LYN | MAP2K1 | MAP2K2 | MAP4K2 | MAPK1 | MAPK4 | MAPKAPK2 | MKNK1 | NTRK2

COc1cc(C(=O)NC2CCN(C)CC2)c(F)cc1Nc1ncc2c(n1)N(C1CCCC1)CC(F)(F)C(=O)N2C [TAK-960 (dihydrochloride)] (2.5 µM)
0: LMTK2 | LYN | MAP2K1 | MAP2K2 | MAP4K2 | MAPK1 | MAPK4 | MAPKAPK2 | MKNK1 | NTRK2

O=c1c(-c2ccc(O)cc2)coc2cc(O)cc(O)c12 [Genistein] (10 µM)
0: LMTK2 | LYN | MAP2K1 | MAP2K2 | MAP4K2 | MAPK1 | MAPK4 | MAPKAPK2 | MKNK1 | NTRK2

Cc1ncc(-c2ccnc(Nc3ccc(S(C)(=O)=O)cc3)n2)n1C(C)C (2.5 µM)
0: LYN | MAP2K1 | MAP2K2 | MAP4K2 | MAPK1 | MAPK4 | MAPKAPK2 | MKNK1
3: LMTK2 | NTRK2

Two compounds picked at random from the list so far, as already listed:
COc1cc(N2CCC(N)CC2)ccc1Nc1ncc(Cl)c(-c2c[nH]c3ccccc23)n1 (2.5 µM)
0: LMTK2 | LYN | MAP2K1 | MAP2K2 | MAP4K2 | MAPK1 | MAPK4 | MAPKAPK2 | MKNK1 | NTRK2

Cc1c[nH]c2ccccc12 [Skatole] (10 µM)
0: LMTK2 | LYN | MAP2K1 | MAP2K2 | MAP4K2 | MAPK1 | MAPK4 | MAPKAPK2 | MKNK1 | NTRK2

(more compounds)

COc1cc2nc(C)nc(N[C@H](C)c3cc(N)cc(C(F)(F)F)c3)c2cc1O[C@H]1CCOC1 (10 µM)
0: LMTK2 | LYN | MAP2K1 | MAP2K2 | MAP4K2 | MAPK1 | MAPK4 | MAPKAPK2 | MKNK1 | NTRK2

CN1CCN(c2ccc(C(=O)Nc3n[nH]c4ccc(Cc5cc(F)cc(F)c5)cc34)c(NC3CCOCC3)c2)CC1 [Entrectinib] (2.5 µM)
0: LMTK2 | LYN | MAP2K1 | MAP2K2 | MAP4K2 | MAPK1 | MAPK4 | MAPKAPK2 | MKNK1 | NTRK2

CN(c1ncccc1CNc1nc(Nc2ccc3c(c2)CC(=O)N3)ncc1C(F)(F)F)S(C)(=O)=O (2.5 µM)
2: LMTK2
0: LYN | MAP2K1 | MAP2K2 | MAP4K2 | MAPK1 | MAPK4 | MAPKAPK2 | MKNK1
3: NTRK2

COc1cc(Nc2ncc3c(n2)-c2ccc(Cl)cc2C(c2c(F)cccc2OC)=NC3)ccc1C(=O)O [Alisertib] (2.5 µM)
0: LMTK2 | LYN | MAP2K1 | MAP2K2 | MAP4K2 | MAPK1 | MAPK4 | MAPKAPK2 | MKNK1 | NTRK2

Cc1cccc(Cn2nc(C3CC3)c3c(NC(=O)c4cnc5cc(OCCN6CCN(C)CC6)ccn45)cccc32)n1 (10 µM)
0: LMTK2 | LYN | MAP2K1 | MAP2K2 | MAP4K2 | MAPK1 | MAPK4 | MAPKAPK2 | MKNK1 | NTRK2

CCCCOc1c(C(=O)c2c(F)cc(C)cc2F)c[nH]c2nncc1-2 (10 µM)
0: LMTK2 | LYN | MAP2K1 | MAP2K2 | MAP4K2 | MAPK1 | MAPK4 | MAPKAPK2 | MKNK1 | NTRK2

CC(C)(C)S(=O)(=O)c1cc2c(Nc3ccc4scnc4c3)ncnc2cc1OCCO (2.5 µM)
0: LMTK2 | LYN | MAP2K1 | MAP2K2 | MAP4K2 | MAPK1 | MAPK4 | MAPKAPK2 | MKNK1 | NTRK2

COc1ccc(C=C(C#N)c2cccnc2)cc1OC (10 µM)
0: LMTK2 | LYN | MAP2K1 | MAP2K2 | MAP4K2 | MAPK1 | MAPK4 | MAPKAPK2 | MKNK1 | NTRK2

COCc1c(-c2ccc(NC(=O)Nc3cc(C(F)(F)F)ccc3F)c(F)c2)c2c(N)ncnn2c1CN1CCOCC1 (2.5 µM)
0: LMTK2 | LYN | MAP2K1 | MAP2K2 | MAP4K2 | MAPK1 | MAPK4 | MAPKAPK2 | MKNK1 | NTRK2

COCCNCCc1cccc(Nc2ncc3c(n2)-c2ccccc2[C@H](c2ccccc2F)C3)c1 [Derazantinib] (2.5 µM)
0: LMTK2 | LYN | MAP2K1 | MAP2K2 | MAP4K2 | MAPK1 | MAPK4 | MAPKAPK2 | MKNK1 | NTRK2

C=CC(=O)N1C[C@H](Nc2ncnc3[nH]ccc23)CC[C@@H]1C [Ritlecitinib] (10 µM)
0: LMTK2 | LYN | MAP2K1 | MAP2K2 | MAP4K2 | MAPK1 | MAPK4 | MAPKAPK2 | MKNK1 | NTRK2

Cc1c[nH]c(/C=C2\C(=O)Nc3ccccc32)c1CCC(=O)O (10 µM)
0: LMTK2 | LYN | MAP2K1 | MAP2K2 | MAP4K2 | MAPK1 | MAPK4 | MAPKAPK2 | MKNK1 | NTRK2

CCCn1cnc2c(NCc3ccccc3)nc(NC(CC)CO)nc21 (stereo not given) [Ca2+ channel agonist 1] (2.5 µM)
0: LMTK2 | LYN | MAP2K1 | MAP2K2 | MAP4K2 | MAPK1 | MAPK4 | MAPKAPK2 | MKNK1 | NTRK2

C=CC(=O)N1CC[C@H](n2nc(C#Cc3cc(OC)cc(OC)c3)c3c(N)ncnc32)C1 [Futibatinib] (10 µM)
0: LMTK2 | LYN | MAP2K1 | MAP2K2 | MAP4K2 | MAPK1 | MAPK4 | MAPKAPK2 | MKNK1 | NTRK2

CCn1c(=O)c2cc(C(N)=O)c(N)nc2n(C2CC2)c1=O (10 µM)
0: LMTK2 | LYN | MAP2K1 | MAP2K2 | MAP4K2 | MAPK1 | MAPK4 | MAPKAPK2 | MKNK1 | NTRK2

CNC(=O)c1cccc(-c2ccc3c(N4CCOC[C@@H]4C)nc(N4CCOC[C@@H]4C)nc3n2)c1 [Vistusertib] (2.5 µM)
1: LYN
3: MKNK1 | NTRK2
0: LMTK2 | MAP2K1 | MAP2K2 | MAP4K2 | MAPK1 | MAPK4 | MAPKAPK2

CNC(=O)c1ccccc1Nc1nc(Nc2ccc(N3CCOCC3)cc2OC)ncc1Cl (2.5 µM)
0: LMTK2 | LYN | MAP2K1 | MAP2K2 | MAP4K2 | MAPK1 | MAPK4 | MAPKAPK2 | MKNK1 | NTRK2
